For at least one entry, the source does not settle the construct or the ends of the probe. For part of these data: Negatives hold for the conditions tested.

The values below come from PMC12866847.

For data set [1], the system named is MBP-ZmWRKY44-FLAG (Zea mays (B73)). In words: EMSA. The conditions noted are these: EMSA: 25 °C, 20 min, Beyotime GS009 chemiluminescent EMSA kit, native PAGE, salt and pH not stated, recombinant protein, protein details: His-MBP N-term, label: biotin. On the technique in general: Mobility shift assays separate free from complexed probe on a gel.
The test system is the same in data set [2]. In words: competition with a labelled probe. The settings on record: unlabelled intact probe disrupts binding to N1, EMSA: 25 °C, 20 min, Beyotime GS009 chemiluminescent EMSA kit, native PAGE, salt and pH not stated, recombinant protein, protein details: His-MBP N-term.

For the sequence “TCTCCTCGGCGGCGGCTTAAAAAAGCTCCTTTTCCTGGCTCC (double strand) [AAAAAA-mBiotin (mutated W-box probe)]”, the binding result in data set [1] was “no binding”.

As for “TCTCCTCGGCGGCGGCTTTTGACGGCTCCTTTTCCTGGCTCC (double strand) [CGTCAA-Biotin (W-box probe, ZmRRS1 promoter)]”, the binding result in data set [1] is listed as “binds”.

For the sequence “TCTCCTCGGCGGCGGCTTTTGACGGCTCCTTTTCCTGGCTCC (double strand) [CGTCAA-Comp (unlabelled W-box competitor)]”, the binding result in data set [2] is given as “binds”.
